Test results reported in paper PMC3969353.
For at least one entry, the source does not settle the construct or the ends of the probe. At least one verdict was read from the data and is not stated in words by the source.

Test system: E. coli HU (Escherichia coli)
Assay: EMSA
Details: bend permutation, recombinant protein, label: 5'-32P

Row | Sequence | binding result | binding result (slowest migrating complex)
1 | CAGGGCAATCGCATTTGAACCGTTACACACTTATAGATCTAACGATTGCTACGCTCGGTTATCAAACAAGTACGAAT / ATTCCAACTTGTTTGTAAACCGAGCGTAGCAATCGTTAGATCTATAAGTGTGTAACGGTTCAAATGCGATTGCCCTG [Loop 4] | binds | –
2 | CAGGGCAATCGCATTTGAACCGTTACACACTTATAGATCTAACGATTGCTACGCTCGGTTATCAAACAAGTACGAAT / ATTCGTACTTGTTTGATAACCGAGCGTAGCAATCGTTAGATCTATAAGTCAGTAACGGTTGTAATGCGATTGCCCTG [Loop 2] | binds | –
3 | CAGGGCAATCGCATTTGAACCGTTACACACTTATAGATCTAACGATTGCTACGCTCGGTTATCAAACAAGTACGAAT / ATTCGTACTTGTTTGATAACCGAGCGTAGCAATCGTTAGATCTATAAGTGTGTAACGGTTGTAATGCGATTCGCCTG [Loop 1] | binds | –
4 | CAGGGCAATCGCATTTGAACCGTTACACACTTATAGATCTAACGATTGCTACGCTCGGTTATCAAACAAGTACGAAT / ATTCGTACTTGTTTGATAACCGAGCGTAGCAAAGGTTAGATCTTAAAGTGTGTAACGGTTCAAATGCGATTGCCCTG [Loop (original, central)] | – | binds
5 | CAGGGCAATCGCATTTGAACCGTTACACACTTATAGATCTAACGATTGCTACGCTCGGTTATCAAACAAGTACGAAT / ATTCGTACTTGTTTGTAAACCGAGCGATGCAATCGTTAGATCTATAAGTGTGTAACGGTTCAAATGCGATTGCCCTG [Loop 3] | binds | –
